# Several values for one entry are separate records, joined by “and”; a condition that tells them apart may be missing. Equal values may be shown once. Inconclusive results, whose numbers are uncertain, are shown with a selection of clear calls. For some of these results: Where the call is inconclusive, the potency comes from a doubtful curve fit. Activity calls are given as the source filed them. Unless noted, calls follow the shape of the dose curve; as a rule, active = well fitted curve in the direction sought with a large enough effect; inconclusive = small, poorly fitted or top-dose-only effect, or another doubt; inactive = no such curve, though single readings can be large; an effect the other way counts as inactive or inconclusive.
# Chains of the proteins cited; added tags and fusions are not shown. Lines headed by an entry give the natural chain unless they say otherwise; changes in a name come on top.
# UniProt P83916, whole entry, looked up: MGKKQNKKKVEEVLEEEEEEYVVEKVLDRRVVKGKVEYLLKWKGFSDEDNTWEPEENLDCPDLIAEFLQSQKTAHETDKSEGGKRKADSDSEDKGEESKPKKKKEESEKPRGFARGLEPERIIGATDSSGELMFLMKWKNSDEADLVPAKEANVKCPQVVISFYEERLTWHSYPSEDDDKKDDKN
# UniProt Q07343: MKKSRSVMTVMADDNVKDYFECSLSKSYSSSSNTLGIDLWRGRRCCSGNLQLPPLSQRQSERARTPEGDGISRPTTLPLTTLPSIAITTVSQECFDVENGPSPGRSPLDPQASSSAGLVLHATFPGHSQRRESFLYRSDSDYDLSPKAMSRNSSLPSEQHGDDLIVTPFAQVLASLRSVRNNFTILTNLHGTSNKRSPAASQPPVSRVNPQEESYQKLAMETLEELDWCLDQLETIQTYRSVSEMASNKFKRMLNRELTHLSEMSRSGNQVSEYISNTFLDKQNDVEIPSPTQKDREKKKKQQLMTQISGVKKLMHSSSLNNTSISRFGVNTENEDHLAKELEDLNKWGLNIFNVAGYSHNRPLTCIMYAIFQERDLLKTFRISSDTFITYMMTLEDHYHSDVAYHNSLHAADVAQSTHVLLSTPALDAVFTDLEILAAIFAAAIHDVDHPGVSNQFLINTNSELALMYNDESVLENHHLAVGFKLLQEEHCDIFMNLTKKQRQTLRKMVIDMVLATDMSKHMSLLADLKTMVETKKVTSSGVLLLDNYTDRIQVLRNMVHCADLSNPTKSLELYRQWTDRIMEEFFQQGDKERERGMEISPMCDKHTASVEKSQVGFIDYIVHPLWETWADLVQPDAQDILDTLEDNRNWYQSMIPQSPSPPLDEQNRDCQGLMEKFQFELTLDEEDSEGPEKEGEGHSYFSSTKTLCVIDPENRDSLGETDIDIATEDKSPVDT
# UniProt P08684, whole entry, looked up: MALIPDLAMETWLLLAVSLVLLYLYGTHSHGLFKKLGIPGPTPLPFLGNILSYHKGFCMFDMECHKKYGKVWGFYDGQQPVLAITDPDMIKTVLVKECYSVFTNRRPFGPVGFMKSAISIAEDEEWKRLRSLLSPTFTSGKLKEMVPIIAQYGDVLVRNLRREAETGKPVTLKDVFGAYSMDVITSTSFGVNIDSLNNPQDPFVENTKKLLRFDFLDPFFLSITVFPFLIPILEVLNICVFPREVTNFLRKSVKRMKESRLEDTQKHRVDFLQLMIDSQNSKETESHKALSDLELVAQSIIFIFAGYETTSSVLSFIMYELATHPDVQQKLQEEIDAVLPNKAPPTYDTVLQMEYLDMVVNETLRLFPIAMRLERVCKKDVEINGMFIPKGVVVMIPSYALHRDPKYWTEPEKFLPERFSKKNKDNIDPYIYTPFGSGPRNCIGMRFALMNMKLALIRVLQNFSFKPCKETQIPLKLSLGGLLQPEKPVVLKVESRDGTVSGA
# UniProt Q99828: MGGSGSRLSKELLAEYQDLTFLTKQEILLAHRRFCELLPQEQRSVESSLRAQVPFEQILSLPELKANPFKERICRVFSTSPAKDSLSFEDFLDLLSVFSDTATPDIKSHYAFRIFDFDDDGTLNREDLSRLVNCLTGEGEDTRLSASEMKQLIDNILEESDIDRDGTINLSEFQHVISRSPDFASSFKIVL
# Key:
# [1] = Stat Signaling Pathway (AID 446; active = well fitted curve in either direction with a large enough effect, not every such curve was filed as active; inconclusive = small, poorly fitted or top-dose-only effect, or another doubt;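 also: ME-180 cervical cancer cells given 40 pM IL-6 alongside compound; SIE-controlled beta-lactamase reporter measured as 460/530 nm FRET emission ratio; % is scaled to controls: 0 for no effect and ±100 for the full control effect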); conditions: ME-180 SIE beta-lactamase reporter, IL-6 stimulated, 5 h; at 38 µM (top of the series)
# How it was run: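 IL-6/STAT signaling read in ME-180 cells via an SIE beta-lactamase reporter. Stimulus was 40 pM IL-6 (its AC50) for 5 hrs, so both activation and inhibition register.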
# [2] = qHTS for differential inhibitors of proliferation of Plasmodium falciparum line Dd2 (AID 1882); conditions: Potency: Plasmodium falciparum Dd2 proliferation inhibition; also: nearly all actives have a fitted effect of over 65% in size; also: potency is read from the fitted curve at half-maximal effect
# How it was run: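 SYBR Green I DNA fluorescence read-out, ex 485/em 535 nm. Signals were normalized to 0.29 uM artemisinin and DMSO wells, then corrected using vehicle-only plates flanking each stack. Parasite growth ran 72 h in erythrocytes before lysis.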
# [3] = target: Chromobox protein homolog 1 (Homo sapiens) (UniProt P83916); assay: qHTS Validation Assay for Inhibitors of HP1-beta Chromodomain Interactions with Methylated Histone Tails (AID 488953); also: nearly all actives have a fitted effect of over 50% in size; also: potency is read from the fitted curve at half-maximal effect
# How it was run: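 Measured as loss of AlphaScreen luminescence from streptavidin donor and nickel acceptor beads (10 ug/mL final) bridging HP1-beta and biotin-H3(1-18)K9me3, each 50 nM. Compounds met the preassembled complex for 30 min at RT.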
# [4] = qHTS Assay for Identifying Gametocytocidal Compounds (AID 743244); also: potency is read from the fitted curve at half-maximal effect; conditions: P. falciparum 3D7 stage III-V gametocytes, alamarBlue, 72 h; max response: stronger effect = lower value
# How it was run: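 Viability read-out was resazurin reduction (alamarBlue, 24 h) measured at Ex 525/Em 598 nm. Beforehand, late-stage (III-V) 3D7 P. falciparum gametocytes at 20,000 cells/well were incubated with compound 72 h at 37C under 5% CO2.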
# [5] = test system: Zika virus NS2B-NS3 protease; assay: Primary screen GU AMC qHTS for Zika virus inhibitors (AID 1347154); also: nearly all actives have a fitted effect of over 70% in size; also: potency is read from the fitted curve at half-maximal effect
# How it was run: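 Unlinked Zika NS2B hydrophilic domain–NS3 protease complex at 25 nM in 10 mM Tris-HCl pH 8.0, 0.01% Tween 20, with an AMC peptide substrate. Fluorescence change (340/450 nm) over 15 min at room temperature, normalized to controls, fitted to 4-parameter Hill.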
# [6] = test system: CP291; assay: qHTS profiling for inhibitors of Plasmodium falciparum proliferation (AID 504749); also: nearly all actives have a fitted effect of over 60% in size; also: potency is read from the fitted curve at half-maximal effect;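 as to activity, negative = inhibition: 0% = DMSO vehicle and full inhibition = artemisinin control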; conditions: P. falciparum in erythrocytes, SYBR Green DNA, 72 h; activity, negative = inhibition: at 28.7 µM (top of the series)
# How it was run: (§1)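 Readout was DNA-dye fluorescence from lysed cultures, ex 485/em 535 nm. Parasitized red cells had grown 72 h with compound; data scaled between 0.29 uM artemisinin and DMSO wells and corrected using vehicle-only plates.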
# [7] = test system: CP329; assay: as above; conditions: P. falciparum in erythrocytes, SYBR Green DNA, 72 h; series mostly up to 28.7 µM
# How it was run: as §1
# [8] = target: 3',5'-cyclic-AMP phosphodiesterase 4B (Homo sapiens) (UniProt Q07343); assay: qHTS Assay for Inhibitors of PDE-IV (AID 607; active = well fitted activation curve with a large enough effect in the main read-out, with a control signal flat, not every such curve was filed as active; inconclusive = small, poorly fitted or top-dose-only effect, or effect the other way, or a change in a side signal; also: potency is read from the fitted curve at half-maximal effect); conditions: HEK293 ACTOne CNG channel cells, membrane potential fluorescence; activation (PDE inhibition): at 22.9 µM (top of the series)
# How it was run: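 Live HEK293 cells with a modified cyclic nucleotide-gated (CNG) channel report intracellular cAMP via membrane-potential dye fluorescence (ex 535/em 590 nm). Endogenous PDE-IV was targeted. Compounds were tested at up to 22.9 uM final; RO 20-1724 100 uM served as control.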
# [9] = test system: HB3; assay: qHTS profiling for inhibitors of Plasmodium falciparum proliferation (AID 504749); also: nearly all actives have a fitted effect of over 60% in size; also: potency is read from the fitted curve at half-maximal effect;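 as to activity, negative = inhibition: 0% = DMSO vehicle and full inhibition = artemisinin control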; conditions: P. falciparum in erythrocytes, SYBR Green DNA, 72 h; series mostly up to 28.7 µM
# How it was run: as §1
# [10] = qHTS Assay for Identification of Small Molecule Agonists for Hypoxia Response Element Signaling Pathway (AID 914; active = well fitted activation curve with a large enough effect in the signal ratio, with a control signal flat, not every such curve was filed as active; inconclusive = small, poorly fitted or top-dose-only effect, or effect the other way, or a change in a side signal; the % refers to the signal ratio; also: % of control where 0% means no effect); conditions: ME-180 (cervical carcinoma) HRE-bla reporter, beta-lactamase ratio, CoCl2, 17 h; activation: stronger effect = higher value
# How it was run: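 Positive modulation of EC50 CoCl2-induced hypoxia response element signaling is measured in ME-180 cells with a beta-lactamase reporter. Compounds are titrated, incubation runs 17 hours, and %Activity derives from the blue/green ratio.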
# [11] = test system: CP256; assay: qHTS profiling for inhibitors of Plasmodium falciparum proliferation (AID 504749); also: nearly all actives have a fitted effect of over 60% in size; also: potency is read from the fitted curve at half-maximal effect;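 as to activity, negative = inhibition: 0% = DMSO vehicle and full inhibition = artemisinin control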; conditions: P. falciparum in erythrocytes, SYBR Green DNA, 72 h; series mostly up to 28.7 µM
# How it was run: as §1
# [12] = qHTS for differential inhibitors of proliferation of Plasmodium falciparum line 3D7 (AID 1876); also: potency is read from the fitted curve at half-maximal effect
# [13] = target: Cytochrome P450 3A4 (Homo sapiens) (UniProt P08684); assay: Cytochrome P450 family 3 subfamily A member 4 (CYP3A4) small molecule antagonists: luciferase qHTS assay (AID 1645841; active = well fitted curve in the direction sought with a large enough effect in the repeat runs; inconclusive = weak or mixed curves; inactive = no such curve, though single readings can be large; an effect the other way counts as inactive or inconclusive; also: nearly all actives have a fitted effect of over 45% in size; also: potency is read from the fitted curve at half-maximal effect)
# How it was run: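 P450-Glo CYP3A4 enzyme with proluciferin substrate preincubated 10 min with compound at room temperature, then NADPH regeneration 1 h. Luciferin detection reagent added for 20 min; luminescence recorded. Ketoconazole positive control.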
# [14] = test system: 3D7; assay: qHTS profiling for inhibitors of Plasmodium falciparum proliferation (AID 504749); also: nearly all actives have a fitted effect of over 60% in size; also: potency is read from the fitted curve at half-maximal effect;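 as to activity, negative = inhibition: 0% = DMSO vehicle and full inhibition = artemisinin control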; conditions: P. falciparum in erythrocytes, SYBR Green DNA, 72 h; series mostly up to 28.7 µM
# How it was run: as §1
# [15] = test system: JCK; assay: as above; conditions: P. falciparum in erythrocytes, SYBR Green DNA, 72 h; series mostly up to 28.7 µM
# How it was run: as §1
# [16] = target: Calcium and integrin-binding protein 1 (Homo sapiens) (UniProt Q99828); assay: Primary qHTS for Identification of Calcium Integrin Binding Protein 1 (CIB1) Competitor (AID 1508620); also: potency is read from the fitted curve at half-maximal effect
# How it was run: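 Fluorescence polarization competition: GST-tagged CIB1 (1 uM final) preincubated with compound 15 min at room temperature, then FITC-labelled alphaIIb peptide (100 nM final) added. After 15 min at room temperature, polarization read at Ex 480/Em 540.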
# [17] = test system: CP315; assay: qHTS profiling for inhibitors of Plasmodium falciparum proliferation (AID 504749); also: nearly all actives have a fitted effect of over 60% in size; also: potency is read from the fitted curve at half-maximal effect; conditions: P. falciparum in erythrocytes, SYBR Green DNA, 72 h; series mostly up to 28.7 µM
# How it was run: as §1
# [18] = qHTS assay for small molecule agonists of the antioxidant response element (ARE) signaling pathway (AID 651741; active = well fitted activation curve with a large enough effect in the signal ratio; inconclusive = small, poorly fitted or top-dose-only effect, or effect the other way, or a change in a side signal; the % refers to the signal ratio; also: % of control where 0% means no effect); conditions: HepG2 ARE-bla reporter, beta-lactamase FRET ratio, 16 h; activation: at 96 µM (top of the series)
# How it was run: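 HepG2 ARE-bla cells plated at 2,000 cells/well and incubated 5 h at 37 C/5% CO2 received 23 nL compound in DMSO. After 16 h at 37 C, LiveBLAzer B/G FRET substrate was applied for 2 h at room temperature and fluorescence read.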
# [19] = test system: CP250; assay: qHTS profiling for inhibitors of Plasmodium falciparum proliferation (AID 504749); also: nearly all actives have a fitted effect of over 60% in size; also: potency is read from the fitted curve at half-maximal effect; conditions: P. falciparum in erythrocytes, SYBR Green DNA, 72 h; series mostly up to 28.7 µM
# How it was run: as §1
# [20] = as above; conditions: P. falciparum in erythrocytes, SYBR Green DNA, 72 h; Potency: parasite line A unless noted; series mostly up to 28.7 µM
# How it was run: as §1
smiles,measurement,setting,value
COc1ccccc1N1CCN(CCCCNC(=O)c2ccc(-c3ccc(C(C)=O)cc3)cc2)CC1,Potency,[8],"inconclusive: 19 µM [inhibitor, single point]"
same,Potency,[5],inactive
same,Potency,[9],inactive
CC(N)C(=O)OC(C)(C)Cc1ccc(Cl)cc1 (centres undefined),Potency,[3],"inconclusive: 100 µM [inhibitor, single point]"
same,Potency,[6],"inconclusive: 7.57 µM [inhibitor, partial curve]"
same,Potency,[7],"inconclusive: 6.01 µM [inhibitor, partial curve]"
CCCCc1cc2ccccc2c(OCCN(C)C)n1,Potency,[8],"inconclusive: 15.1 µM [rising, partial curve]"
same,activation,[10],inconclusive: -34.3%
same,Potency,[5],"inconclusive: 39.8 µM [inhibitor, single point]"
same,Potency,[11],inactive
c1ccc(CNCCNCc2ccccc2)cc1,Potency,[4],"inconclusive: 15.8 µM [inhibitor, single point]"
same,Potency,[11],"inconclusive: 10 µM [inhibitor, single point]"
same,"activity, negative = inhibition",[6],inconclusive: -25.6% [inhibitor]
CCOC(=O)c1cnc2c(cnn2CC)c1NN=C(C)C,"activity, negative = inhibition",[1],inactive: -6.68%
same,Potency,[8],"inconclusive: 10 µM [activator, partial curve] and active: 951 nM"
same,Potency,[12],"inconclusive: 17.8 µM [inhibitor, single point]"
same,Potency,[2],inactive
Cc1cc2c(cc1S(N)(=O)=O)S(=O)(=O)CCC2,activation,[10],inconclusive: -30.7% [inhibitor]
same,Potency,[13],inactive
same,Potency,[14],inactive
same,Potency,[15],inactive
CO/N=C(/C(=O)N[C@@H]1C(=O)N2C(C(=O)O)=C(Cn3nnc(C)n3)CS[C@H]12)c1csc(N)n1,Potency,[16],"inconclusive: 89.1 µM [inhibitor, single point]"
c1ccc(-c2nc[nH]c2-c2ccccc2)cc1,Potency,[17],inactive
CN(C)C/C=C/C(=O)Nc1ccc(C(=O)Nc2cccc(Nc3ncc(Cl)c(-c4c[nH]c5ccccc45)n3)c2)cc1,Potency,[13],"inconclusive: 26.8 µM [falling, single point]"
COC(=O)c1cc(Cl)ccc1NS(=O)(=O)C(F)(F)F,Potency,[5],"inconclusive: 35.5 µM [inhibitor, partial curve, poor fit]"
same,Potency,[16],"inconclusive: 44.7 µM [inhibitor, partial curve]"
NS(=O)(=O)c1ccc(N2CCN(CC[C@@H]3OCCc4ccccc43)CC2)cc1,Potency,[13],inactive
CC(C)C(C)(C)C(C)(C)C(C)(C)S,activation,[18],inconclusive: -2.36%
COC1C(OC(=O)/C=C/C=C/C=C/C=C/C(=O)O)CCC2(CO2)C1C1(C)OC1CC=C(C)C (centres undefined),Potency,[14],"inconclusive: 0.0251 µM [inhibitor, full curve]"
same,Potency,[19],"inconclusive: 0.0794 µM [inhibitor, full curve]"
same,Potency,[17],active: 1.69 µM
same,Potency,[7],active: 0.601 µM
same,Potency,[9],"inconclusive: 0.0282 µM [inhibitor, full curve]"
O=C(O)P(=O)(O)O,Potency,[13],"inconclusive: 17.4 µM [falling, partial curve, poor fit]"
O=C(O)[C@@H]1CSCN1,Potency,[13],inactive
same,Potency,[20],inactive
same,Potency,[7],inactive
CC(=O)NC(Cc1c[nH]c2ccccc(=O)c12)C(=O)O (centres undefined),Potency,[16],"inconclusive: 50.1 µM [inhibitor, partial curve]"
CC1=C(C(=O)OC2CCCCC2)C(c2ccc([N+](=O)[O-])cc2)C2=C(CC(C)(C)CC2=O)N1 (centres undefined),Potency,[16],active: 17.8 µM
O=C(NC1CCN(CCc2c[nH]c3ccccc23)CC1)c1ccccc1,Potency,[20],"inconclusive: 11.2 µM [inhibitor, single point]"
same,Potency,[14],"inconclusive: 17.8 µM [inhibitor, single point]"
same,Potency,[15],inactive

# Reformatted: entries from further up.
smiles	measurement	setting	value
CCOC(=O)c1cnc2c(cnn2CC)c1NN=C(C)C	Potency	[8]	inconclusive: 10 µM [activator, partial curve] and active: 951 nM
same	Potency	[12]	inconclusive: 17.8 µM [inhibitor, single point]
same	Potency	[2]	inactive
Cc1cc2c(cc1S(N)(=O)=O)S(=O)(=O)CCC2	activation	[10]	inconclusive: -30.7% [inhibitor]
same	Potency	[13]	inactive
same	Potency	[14]	inactive
same	Potency	[15]	inactive
CO/N=C(/C(=O)N[C@@H]1C(=O)N2C(C(=O)O)=C(Cn3nnc(C)n3)CS[C@H]12)c1csc(N)n1	Potency	[16]	inconclusive: 89.1 µM [inhibitor, single point]
c1ccc(-c2nc[nH]c2-c2ccccc2)cc1	Potency	[17]	inactive

# From PubChem BioAssay (NCATS)
